These results are taken from publication PMC10177380, “Versatile Platinum(IV) Prodrugs of Naproxen and Acemetacin as Chemo-Anti-Inflammatory Agents” (Cancers, 2023).

Data set [1] relates to A431 skin. In words: MTT growth inhibition, 72 h, A431. The data set is classed as cell-based. Particulars: Homo sapiens, A-431.
Data set [2] in a line: Selectivity cytotoxicity index (GI50 in MCF10A/GI50 in Du145). Particulars: human, MCF10A normal breast cells and Du145 prostate cancer cells.

Structures are written as SMILES.

The molecule `COc1ccc2cc([C@H](C)C(=O)O)ccc2c1` [NPX, naproxen] came in with a GI50 in data set [1] above 50 µM. For the same molecule, the selectivity ratio in data set [2] amounted to 1.

What is called GI50 is the concentration giving 50% growth inhibition. A higher GI50 goes with less potent growth inhibition.
